Experimental data published in publication PMC4158420, “Crenactin from Pyrobaculum calidifontis is closely related to actin in structure and forms steep helical filaments” (Febs Letters, 2014).
These are yes or no findings as the source states them, for the method shown.

By UniProt entry, the sequences of proteins in these tests, tags left out.
UniProt A3MWN5: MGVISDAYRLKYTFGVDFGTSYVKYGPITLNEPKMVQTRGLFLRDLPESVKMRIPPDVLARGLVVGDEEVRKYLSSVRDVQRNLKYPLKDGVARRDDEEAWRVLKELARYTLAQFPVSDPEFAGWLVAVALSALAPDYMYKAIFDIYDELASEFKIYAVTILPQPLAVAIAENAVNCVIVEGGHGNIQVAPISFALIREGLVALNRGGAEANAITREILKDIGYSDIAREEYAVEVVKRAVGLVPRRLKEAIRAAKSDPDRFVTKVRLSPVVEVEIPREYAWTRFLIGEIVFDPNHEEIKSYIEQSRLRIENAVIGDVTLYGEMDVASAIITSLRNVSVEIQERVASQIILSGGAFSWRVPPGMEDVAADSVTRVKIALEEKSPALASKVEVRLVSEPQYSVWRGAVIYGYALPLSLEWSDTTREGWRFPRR

Molecular target: Pyrobaculum calidifontis crenactin (Pyrobaculum calidifontis) (UniProt A3MWN5)
Test: condition: only grids not treated with poly-L-lysine and no high salt; negative stain electron microscopy; purified crenactin with ATP on carbon-coated grids not treated with poly-L-lysine, no high salt; both purified

Pyrobaculum calidifontis crenactin (from UniProt A3MWN5 1-432)
binding: no binding
